# The campaign covered roughly 320,000 compounds. About 22,000 (6.9%) were called active. This list was built around the results that the source calls inconclusive (neither active nor inactive); the mix of calls is not that of the screen. The call rests on the fitted dose curve; in most records, active means well fitted inhibition curve with a large enough effect; inconclusive means small, poorly fitted or top-dose-only effect, or another doubt; inactive means no such curve, though single readings can be large or run the other way. A potency beside an inconclusive call is a rough fit, not a confirmed value.
# Assay: Primary qHTS for delayed death inhibitors of the malarial parasite plastid, 96 hour incubation
# Details: P. falciparum luciferase reporter growth; series mostly up to 28.7 µM; activity change, negative = inhibition: at the top concentration
# Method in brief: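 P. falciparum expressing integrated firefly luciferase grown in erythrocytes (2% hematocrit, 0.05% parasitemia final) with compounds for 96 hours at 37 C, 5% CO2. Growth inhibition read as loss of luminescence after adding luciferase detection reagent.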
# On the % scale 0 is the no-effect control and ±100 the full control effect; potency means the concentration at half of the fitted maximal effect.
Structure (SMILES),"activity change, negative = inhibition",Potency
CCCCCCCCCC(=O)N1c2ccccc2NC(=O)C1CC(=O)Nc1ccc(C(=O)O)cc1 (stereo not given),inactive: 4.04%,–
Cc1c(C#N)c2ncn(Cc3ccccc3)c(=O)c2n1-c1ccccc1,–,"inconclusive: 18.5 µM [inhibitor, single point]"
CCOc1ccc(NC(=O)c2cccc(NC3=NC4CS(=O)(=O)CC4S3)c2)cc1 (stereo not given),–,active: 8.28 µM
c1csc(CNc2ncnc3ccc(-c4ccc5c(c4)OCCO5)cc23)c1,–,"inconclusive: 18.5 µM [inhibitor, single point]"
COC(=O)C(C)Oc1cc(C)cc2oc(=O)c3c(c12)CCC3 (stereo not given),–,"inconclusive: 2.08 µM [inhibitor, partial curve, poor fit]"
O=C(Nc1cccnc1)c1ccccc1-c1ccccc1,inactive: 399%,–
O=C(Nc1ccccc1)C1=C[C@H](C2CCCCC2)C[C@H](OCc2ccc(CO)cc2)O1,–,"inconclusive: 18.5 µM [inhibitor, single point]"
N#C/C(=C\c1ccc(OCC(N)=O)cc1)C(=O)NC1CC1,inactive: 0%,–
CCCCC(=O)NC(=S)Nc1ccccc1N1CCCCC1,–,"inconclusive: 18.5 µM [inhibitor, single point]"
S=C(NCc1ccccc1)NCc1ccco1,–,"inconclusive: 18.5 µM [inhibitor, single point]"
CC(C)(Oc1ccc(Cl)cc1)C(=O)OCC(=O)NCCc1ccc(S(N)(=O)=O)cc1,inactive: 9.46%,–
COc1ccc(C(C)=O)cc1COC(=O)c1cccc(N(C)C)c1,–,"inconclusive: 9.28 µM [inhibitor, partial curve, poor fit]"
CC(C)(C)c1ccc(C(=O)N2CCN(c3ccc(N4CCOCC4)nn3)CC2)cc1,–,"inconclusive: 3.7 µM [inhibitor, full curve]"
O=c1oc(-c2cccc([N+](=O)[O-])c2)nc2ccccc12,–,"inconclusive: 10.4 µM [inhibitor, single point]"
Cc1cc(N2CCOCC2)n2ncc(-c3ccc(Cl)cc3)c2n1,inactive: 153%,–
CC(C)(C)NC(=O)C(c1ccccn1)N(C(=O)C1CSC(=O)C1)c1ccc(F)cc1 (stereo not given),–,"inconclusive: 4.15 µM [inhibitor, single point]"
Cc1c(NC(=O)Nc2ccc(Cl)cc2Cl)c(=O)n(-c2ccccc2)n1C,–,"inconclusive: 1.17 µM [inhibitor, partial curve, poor fit]"
Cc1ccc(C2NC(c3ccc(C)cc3)C([N+](=O)[O-])C(C)(C)C2[N+](=O)[O-])cc1 (stereo not given),–,"inconclusive: 18.5 µM [inhibitor, single point]"
CCNc1nc(OC)nc(SCC(=O)Nc2ccccc2)n1,inactive: -0.28%,–
O=C(CSc1ccc(-c2cccs2)nn1)Nc1ccccc1F,–,active: 2.33 µM
CCOC(=O)c1ccc(NC(=O)COC(=O)c2cccc(Oc3ccccc3)c2)cc1,inactive: -9.37%,–
COc1cccc(CN2CCNC(=O)C2CC(=O)NCC2CCOCC2)c1 (stereo not given),–,"inconclusive: 4.15 µM [inhibitor, partial curve, poor fit]"

# A draw from above in order of heavy-atom count, falling:
Structure (SMILES),"activity change, negative = inhibition",Potency
COc1cccc(CN2CCNC(=O)C2CC(=O)NCC2CCOCC2)c1 (stereo not given),–,"inconclusive: 4.15 µM [inhibitor, partial curve, poor fit]"
O=C(Nc1cccnc1)c1ccccc1-c1ccccc1,inactive: 399%,–
O=c1oc(-c2cccc([N+](=O)[O-])c2)nc2ccccc12,–,"inconclusive: 10.4 µM [inhibitor, single point]"

# Remaining list, next part:

Structure (SMILES),"activity change, negative = inhibition",Potency
CC(C)C(=O)Nc1cccc(NC(=S)NC(=O)C(c2ccccc2)c2ccccc2)c1,–,"inconclusive: 0.104 µM [inhibitor, partial curve, poor fit]"
O=C(Nc1ccccc1)N1N=C(c2ccc(F)cc2)CC1c1ccc(F)cc1 (stereo not given),–,"inconclusive: 9.28 µM [inhibitor, partial curve, poor fit]"
COc1ccc(CCN(C(=O)C(F)(F)F)C(C(=O)NC2CCCCC2)c2ccc(C)s2)cc1OC (stereo not given),–,"inconclusive: 2.33 µM [inhibitor, full curve, poor fit]"
COc1ccc2c(C)cc(=S)[nH]c2c1,–,"inconclusive: 13.1 µM [inhibitor, single point]"
CC1Cc2ccccc2N1S(=O)(=O)c1cccc(C(=O)N2CC(=O)Nc3ccccc32)c1 (stereo not given),inactive: 4.81%,–
CCc1ccc(Nc2n[n+](-c3ccccc3)c(-c3ccc(SC)cc3)s2)cc1,–,active: 4.65 µM
CCOC(=O)c1c(NC2OC(=O)c3c2ccc(OC)c3OC)sc(C(=O)OC(C)(C)C)c1C (stereo not given),–,"inconclusive: 11.7 µM [inhibitor, single point]"
Cc1[nH]c2ccccc2c1C(=O)C(=O)NCc1ccco1,–,active: 11.7 µM
Cc1cc(Br)ccc1NC(=O)CN(C)C(=O)CCSc1ccc(F)cc1,–,"inconclusive: 13.1 µM [inhibitor, single point]"
Cn1c(/C=C/c2cccc([N+](=O)[O-])c2)c([N+](=O)[O-])c(=O)n(C)c1=O,–,"inconclusive: 4.15 µM [inhibitor, single point]"
Cc1ccc(C(C(=O)NCC2CCCO2)N(C(=O)c2snc(C(N)=O)c2N)c2ccc(C(C)C)cc2)o1 (stereo not given),–,"inconclusive: 7.38 µM [inhibitor, partial curve]"
CCOC(=O)CC/C(C)=N\N=C1\SC(CC(=O)O)C(=O)N1c1ccccc1 (stereo not given),–,"inconclusive: 0.0029 µM [inhibitor, full curve, poor fit]"
COC(=O)C1=C(C(=O)OC)[C@@H]2N(Cc3ccccc3)c3ccccc3[C@@]23C[C@@H](CO)N(C(=O)NC2CCCC2)C3=N1,–,"inconclusive: 13.1 µM [inhibitor, single point]"
O=C(Nc1ccc(O)cc1)c1ccc2c(c1)C(=O)N(N1C(=O)c3ccccc3C1=O)C2=O,–,"inconclusive: 0.0586 µM [inhibitor, full curve, poor fit]"
C/C(=N\Nc1nncc2ccccc12)c1ccc(Cl)c([N+](=O)[O-])c1,inactive: 64.3%,–
COc1ccccc1NC(=O)Nc1ccccc1C#N,–,"inconclusive: 18.5 µM [inhibitor, single point]"
COc1ccccc1N=Nc1c(O)[nH]c2ccc(Br)cc12,–,"inconclusive: 0.037 µM [inhibitor, full curve, poor fit]"
CCC1=NN(C(=O)CCc2ccccc2O)C(O)(C(F)(F)F)C1 (stereo not given),–,"inconclusive: 1.85 µM [inhibitor, single point]"
CCCc1cc(=O)[nH]c(SCC(=O)c2ccc(S(=O)(=O)N3CCCC3)cc2)n1,–,"inconclusive: 5.22 µM [inhibitor, partial curve]"
Cc1cc(=O)[nH]c(N/N=C/c2c(C)nn(-c3ccccc3)c2C)n1,inactive: -24.8%,–
CC(C)(C)c1ccc(C(=O)NNc2cc(N3CCCCC3)nc(N3CCCCC3)n2)cc1,–,"inconclusive: 1.85 µM [inhibitor, partial curve, poor fit]"
CNC(=O)C(Sc1nc(C)nc2c1oc1ccccc12)C(C)=O (stereo not given),–,"inconclusive: 18.5 µM [inhibitor, single point]"

Structure (SMILES),"activity change, negative = inhibition",Potency
COC(=O)c1cc2occc2n1Cc1nc(-c2cccc(Cl)c2)oc1C,–,"inconclusive: 18.5 µM [inhibitor, single point]"
CN(CC(=O)Nc1ccc(Cl)c(C(F)(F)F)c1)C(=O)c1cc(=O)[nH]c2ccccc12,–,"inconclusive: 5.86 µM [inhibitor, partial curve]"
O=C(NCCc1ccccc1)c1ccccc1F,inactive: -1.43%,–
Cc1cc(C)c(S(=O)(=O)N(C)CC(=O)NCC2CCCO2)c(C)c1 (stereo not given),inactive: 61.1%,–
CC1(C)CC(=O)C2=C(C1)OC(N)=C(C#N)C2c1ccc2c(c1)OCO2 (stereo not given),–,"inconclusive: 2.33 µM [inhibitor, full curve, poor fit]"
O=C(NCCCN1CCCC1=O)c1cccc(S(=O)(=O)Nc2ccccc2Cl)c1,–,"inconclusive: 7.38 µM [inhibitor, single point]"
COc1cccc(CN2CCN(c3ccc(F)cc3)C2=O)c1,–,"inconclusive: 20.8 µM [inhibitor, single point]"
CC1CC(NC(=O)c2ncn[nH]2)CC(C)(C)C1 (stereo not given),–,"inconclusive: 1.47 µM [inhibitor, partial curve, poor fit]"
Cc1cc(C)n(CC(C)NCc2cn[nH]c2-c2ccc(C)c(C)c2)n1 (stereo not given),–,"inconclusive: 2.08 µM [inhibitor, full curve]"
CCCN(CC(=O)Nc1ccccc1C)C(=O)c1ccc(C)c(S(=O)(=O)N2CCCCC2)c1,–,"inconclusive: 10.4 µM [inhibitor, partial curve, poor fit]"
O=C(CSC1=NNC(c2ccccn2)S1)Nc1cccc(Cl)c1 (stereo not given),–,"inconclusive: 2.08 µM [inhibitor, full curve]"
Cc1cc(C(=O)N/N=C/c2ccc([N+](=O)[O-])o2)c(C)o1,–,active: 3.29 µM
Cn1c(=O)n(CC(=O)Nc2ccccc2)c2ccccc21,–,"inconclusive: 0.465 µM [inhibitor, full curve, poor fit]"
Cc1ccsc1/C=C/c1ccc2cccc(O)c2n1,inactive: 74.3%,–
O=C(O)CN1C(=O)/C(=C\c2cc(Br)ccc2OCc2ccc([N+](=O)[O-])cc2)SC1=S,–,"inconclusive: 18.5 µM [inhibitor, single point]"
CCN(CC)S(=O)(=O)c1cc(C(=O)N=c2sccn2C)ccc1OC,–,"inconclusive: 4.15 µM [inhibitor, single point]"
CCOc1ccc(S(=O)(=O)N2CCC(C(=O)OC(C)C(=O)N(C)C3CCCCC3)CC2)cc1 (stereo not given),–,"inconclusive: 6.57 µM [inhibitor, partial curve]"
CC(Oc1ncnc2ccccc12)C(=O)Nc1cccc(S(=O)(=O)N2CCOCC2)c1 (stereo not given),–,"inconclusive: 18.5 µM [inhibitor, single point]"
C/C(CC(=O)NCc1ccc(Cl)cc1)=N\NC(=O)c1ccccc1F,–,"inconclusive: 4.15 µM [inhibitor, partial curve, poor fit]"
CNC(=O)Oc1cccc2ccccc12,–,"inconclusive: 5.36 µM [inhibitor, partial curve]"
CCOC(=O)c1c(NC(=S)NC(=O)/C=C/c2cccs2)sc(C)c1C,inactive: 0%,–

# Source: PubChem BioAssay AID504834 (National Center for Advancing Translational Sciences (NCATS), 2011)
